PubChem BioAssay AID1259303, Sanger Institute, 2017
Test: 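Which silenced kinases add to BYL719, cetuximab or trametinib effects in colorectal cancer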 (follow-up of hits). Cell system: human COLO320HSR colorectal cancer cells. Reagent: single siRNA against human genes. Treatment: anchor drug BYL719 (1 µM), cetuximab (5 µg/ml) or trametinib (10 nM), or DMSO vehicle alone. Detection: 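Synergy of each knock-down with BYL719 (1 µM), cetuximab (5 µg/ml) or trametinib (10 nM) versus drug alone, plus mean viability normalised to non-targeting pool 2 siRNA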. Direction: synergy score with BYL719: higher = stronger combined killing with BYL719; synergy score with cetuximab: higher = stronger combined killing with cetuximab; synergy score with trametinib: higher = stronger combined killing with trametinib. Rule for the call: 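a knock-down counts as active when any of the three drug synergy scores exceeds 0.10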. Meaning of the calls: active = synergy with at least one drug; inactive = no synergy found.
The whole screen tested 160 reagents; below is a random part of them. 11 of them (6.9%) were called active. 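Viability capped at 1; how the synergy score is calculated is not stated; four separate siRNAs target each gene.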 Unmarked entries are inactive. Reagents against one gene are numbered here. Further read-outs or replicates are left out here. No sequences are given here. Not given: the amount of reagent, the time to read-out.

| target gene | reagent | synergy score with BYL719 | synergy score with cetuximab | synergy score with trametinib |
| --- | --- | --- | --- | --- |
| SF3B1 | 1 | -0.206 | -0.13 | -0.173 |
| SF3B1 | 2 | -0.00338 | 0.017 | -0.0113 |
| SF3B1 | 3 | 0.00745 | -0.11 | 0.0564 |
| SF3B1 | 4 | -0.0728 | -0.0572 | -0.061 |
| KCNH8 | 1 | -0.102 | -0.0395 | 0.0119 |
| KCNH8 | 2 | -0.0358 | -0.00365 | 0.0379 |
| KCNH8 | 3 | -0.179 | 0 | 0 |
| KCNH8 | 4 | -0.019 (active) | 0.122 | -0.0479 |
| PIM1 | 1 | 0.0634 | -0.0603 | -0.0812 |
| PIM1 | 2 | 0.0335 | -0.0119 | -0.0119 |
| PIM1 | 3 | -0.0789 | -0.218 | -0.314 |
| PIM1 | 4 | 0.0172 | -0.013 | -0.0994 |
| HUNK | 1 | -0.186 | -0.17 | -0.22 |
| HUNK | 2 | -0.0858 | -0.0943 | -0.208 |
| HUNK | 3 | 0.0691 | 0 | 0 |
| HUNK | 4 | -0.0852 | 0.0473 | -0.115 |
| AK2 | 1 | -0.23 | -0.143 | -0.233 |
| AK2 | 2 | -0.301 | 0 | 0 |
| AK2 | 3 | 0.00972 | -0.118 | -0.118 |
| AK2 | 4 | -0.303 | 0 | 0 |
| PLK1 | 1 | -0.0569 | -0.0596 | -0.0248 |
| PLK1 | 2 | -0.135 | -0.0864 | -0.143 |
| PLK1 | 3 | 0.0168 | -0.0511 | -0.0571 |
| PLK1 | 4 | -0.093 | -0.0827 | -0.123 |
| ACVR1 | 1 | -0.0438 | 0.0038 | 0 |
| ACVR1 | 2 | -0.0835 | 0 | 0 |
| ACVR1 | 3 | -0.179 | 0 | 0 |
| ACVR1 | 4 | -0.245 | -0.15 | -0.228 |
| BMPR2 | 1 | -0.303 | 0 | 0 |
| BMPR2 | 2 | -0.247 | 0.0383 | -0.107 |
| BMPR2 | 3 | -0.251 | 0 | 0 |
| BMPR2 | 4 | -0.165 | 0 | 0 |
| MPP3 | 1 | 0.0327 | -0.0363 | -0.0363 |
| MPP3 | 2 | -0.0765 | 0.00121 | 0.0682 |
| MPP3 | 3 | -0.0177 | 0 | 0 |
| MPP3 | 4 | -0.0639 | -0.129 | -0.12 |
| GUCY2D | 1 | -0.229 | -0.178 | -0.217 |
| GUCY2D | 2 | -0.0646 | -0.0829 | -0.153 |
| GUCY2D | 3 | -0.0859 | 0.0803 | -0.102 |
| GUCY2D | 4 | -0.236 | -0.198 | -0.198 |
| SYNCRIP | 1 | -0.0428 | 0.0458 | 0 |
| SYNCRIP | 2 | -0.0848 | -0.0224 | -0.031 |
| SYNCRIP | 3 | -0.167 | -0.0363 | -0.189 |
| SYNCRIP | 4 | -0.102 | -0.104 | -0.102 |
| GTF2H1 | 1 | -0.123 | 0 | 0 |
| GTF2H1 | 2 | -0.172 | -0.00168 | -0.00168 |
| GTF2H1 | 3 | -0.168 | 0.00148 | -0.046 |
| GTF2H1 | 4 | 0.0121 | 0.0711 | 0.0458 |
| RPS6KA4 | 1 | -0.143 | -0.165 | -0.169 |
| RPS6KA4 | 2 | -0.0103 | -0.0846 | -0.11 |
| RPS6KA4 | 3 | -0.0733 | -0.0416 | -0.247 |
| RPS6KA4 | 4 | 0.0144 | -0.024 | -0.102 |
| CAMK2N1 | 1 | 0.00509 | -0.0334 | -0.115 |
| CAMK2N1 | 2 | -0.0634 | -0.0582 | -0.204 |
| CAMK2N1 | 3 | 0.00714 | -0.0283 | -0.113 |
| CAMK2N1 | 4 | -0.0181 | -0.0792 | -0.158 |
| SYK | 1 | -0.104 | -0.0771 | -0.00846 |
| SYK | 2 | -0.106 (active) | 0.118 | -0.0607 |
| SYK | 3 | 0.0577 | 0.0367 | 0 |
| SYK | 4 | -0.196 | 0 | 0 |

7 successive reagents from above, for reference:
| target gene | reagent | synergy score with BYL719 | synergy score with cetuximab | synergy score with trametinib |
| --- | --- | --- | --- | --- |
| AK2 | 4 | -0.303 | 0 | 0 |
| PLK1 | 1 | -0.0569 | -0.0596 | -0.0248 |
| PLK1 | 2 | -0.135 | -0.0864 | -0.143 |
| PLK1 | 3 | 0.0168 | -0.0511 | -0.0571 |
| PLK1 | 4 | -0.093 | -0.0827 | -0.123 |
| ACVR1 | 1 | -0.0438 | 0.0038 | 0 |
| ACVR1 | 2 | -0.0835 | 0 | 0 |
